Values quoted from earlier work in publication PMC4788153, “Impact of Cytochrome P450 2D6 Function on the Chiral Blood Plasma Pharmacokinetics of 3,4-Methylenedioxymethamphetamine (MDMA) and Its Phase I and II Metabolites in Humans” (PLoS ONE, 2016).

Conditions: cited from earlier work

CNC(C)Cc1ccc2c(c1)OCO2 (stereo not drawn) [MDMA, 3,4-methylenedioxymethamphetamine]
duration of acute effects (ref [3]): 4 h | mean duration of subjective and cardiovascular effects (ref [76, 77, 84, 91, 101]): 3.5 h | time within which subjective and cardiovascular effects completely subside (ref [76, 77, 84, 91, 101]): 5 to 6 h
